Experimental data as given in US20240270793A1 (UNIVERSITY OF SOUTHAMPTON, priority 2020, published 2024).

Legend:
[1] = general procedure: Fmoc solid-phase peptide synthesis; Wang resin preloaded with the first amino acid (Novabiochem); DIC/HOBt; settings: for final HPLC purity: analytical HPLC
[2] = general procedure: Fmoc solid-phase peptide synthesis; Fmoc-Ile-Wang resin; DIC/HOBt; settings: whole synthesis, scale 0.1 mmol

In the case of cyclo-(methyl)cys agr leu ile ile phe, the step yield ([1]; late stage modification step) is reported as 76% yield and the “final HPLC purity” value ([1]; late stage modification step) is reported as 89% purity.

In the case of cyclo-cys agr leu ile (Aib) phe (Aib)F, the isolated yield ([2]; overall) is reported as 25% overall yield, the isolated mass [2] is reported as 18 mg and the “final HPLC purity” value ([1]; whole synthesis, scale of the general procedure 0.05-0.2 mmol) is reported as 99% purity.
